PubChem BioAssay AID1259304 | Sanger Institute | 2017
Test: 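Kinase knock-downs that add to growth loss from colorectal cancer drugs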 (secondary deconvolution rescreen of primary hits). Cell system: HT115 human colorectal cancer cells. Reagent: single siRNA against human genes. Conditions: anchor drugs BYL719 at 1 µM, cetuximab at 5 µg/ml or trametinib at 10 nM, each set against DMSO vehicle. Read-out: 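Replicate-averaged viability as a fraction of non-targeting control, with a drug-siRNA synergy score from joint versus separate effects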. Reading the numbers: synergy score with BYL719: higher = stronger synthetic lethal interaction with BYL719; synergy score with cetuximab: higher = stronger synthetic lethal interaction with cetuximab; synergy score with trametinib: higher = stronger synthetic lethal interaction with trametinib. Rule for the call: 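a synergy score over 0.10 with at least one of the three anchor drugs makes an active call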. Meaning of the calls: active = synergy with at least one anchor drug; inactive = no synergy with any anchor drug.
In all, the deposit lists 160 reagents; this is a part drawn at random. 88 of all reagents (55%) count as active. 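Four siRNAs per gene, each called on its own in one cell line; calls are not confirmed gene-level hits.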 Entries without a mark were called inactive. Reagents against one gene are numbered here. Further read-outs or replicates are left out here. No sequences are given here. Not stated in the record: the amount of reagent, the time to read-out.

With knock-down of IRAK3 (interleukin 1 receptor associated kinase 3) #1, the screen gave synergy score with BYL719 = -0.0617 (active); synergy score with cetuximab 0.018; synergy score with trametinib 0.189. After knock-down of IRAK3 (interleukin 1 receptor associated kinase 3) #2 the results were synergy score with BYL719 = -0.183 (active); synergy score with cetuximab 0.117; synergy score with trametinib 0.11. For IRAK3 (interleukin 1 receptor associated kinase 3) #3 the deposit lists synergy score with BYL719 = 0.163 (active); synergy score with cetuximab -0.00334; synergy score with trametinib 0.16. With knock-down of IRAK3 (interleukin 1 receptor associated kinase 3) #4, the record shows synergy score with BYL719 = -0.0548 (active); synergy score with cetuximab -0.00376; synergy score with trametinib 0.143. Against NLK (nemo like kinase) #1, the values are synergy score with BYL719 = -0.108; synergy score with cetuximab 0.0299; synergy score with trametinib -0.0187. After knock-down of NLK (nemo like kinase) #2 the results were synergy score with BYL719 = -0.078 (active); synergy score with cetuximab 0.031; synergy score with trametinib 0.184.

Against NLK (nemo like kinase) #3, the entry reads synergy score with BYL719 = -0.133; synergy score with cetuximab -0.0484; synergy score with trametinib 0.034. Depletion of NLK (nemo like kinase) #4 gave: synergy score with BYL719 = -0.0232; synergy score with cetuximab -0.0185; synergy score with trametinib 0.0319. Silencing of BRAF (B-Raf proto-oncogene, serine/threonine kinase) #1 gave: synergy score with BYL719 = -0.0616 (active); synergy score with cetuximab 0.068; synergy score with trametinib 0.179. After knock-down of BRAF (B-Raf proto-oncogene, serine/threonine kinase) #2 the results were synergy score with BYL719 = 0.0829 (active); synergy score with cetuximab 0.2; synergy score with trametinib 0.291. Knock-down of BRAF (B-Raf proto-oncogene, serine/threonine kinase) #3 resulted in: synergy score with BYL719 = -0.0372; synergy score with cetuximab -0.0725; synergy score with trametinib -0.119. Against BRAF (B-Raf proto-oncogene, serine/threonine kinase) #4, the entry reads synergy score with BYL719 = 0.0546; synergy score with cetuximab 0.0597; synergy score with trametinib 0.0964.

For CSNK2A2 (casein kinase 2 alpha 2) #1 the deposit lists synergy score with BYL719 = -0.0113; synergy score with cetuximab -0.0205; synergy score with trametinib 0.0992. For CSNK2A2 (casein kinase 2 alpha 2) #2, the entry reads synergy score with BYL719 = 0.0149 (active); synergy score with cetuximab 0.0318; synergy score with trametinib 0.172. Against CSNK2A2 (casein kinase 2 alpha 2) #3, the values are synergy score with BYL719 = -0.0986; synergy score with cetuximab -0.0987; synergy score with trametinib -0.0492. For CSNK2A2 (casein kinase 2 alpha 2) #4, the entry reads synergy score with BYL719 = 0.0338 (active); synergy score with cetuximab 0.105; synergy score with trametinib 0.24. After knock-down of MARK3 (microtubule affinity regulating kinase 3) #1, the record shows synergy score with BYL719 = 0.054; synergy score with cetuximab -0.0523; synergy score with trametinib 0.0992. For MARK3 (microtubule affinity regulating kinase 3) #2, the values are synergy score with BYL719 = -0.0614; synergy score with cetuximab -0.0244; synergy score with trametinib 0.0808.

After knock-down of MARK3 (microtubule affinity regulating kinase 3) #3, the record shows synergy score with BYL719 = -0.13; synergy score with cetuximab -0.0498; synergy score with trametinib 0.0111. With knock-down of MARK3 (microtubule affinity regulating kinase 3) #4, the record shows synergy score with BYL719 = -0.102 (active); synergy score with cetuximab -0.00879; synergy score with trametinib 0.26.

Reprinted from the listing (2 entries):
MARK3 (microtubule affinity regulating kinase 3) #1 → synergy score with BYL719 = 0.054; synergy score with cetuximab = -0.0523; synergy score with trametinib = 0.0992
MARK3 (microtubule affinity regulating kinase 3) #2 → synergy score with BYL719 = -0.0614; synergy score with cetuximab = -0.0244; synergy score with trametinib = 0.0808
